Our source for the binding values is patent US20250277054A1.

The target of experiment [1] is full-length cynomolgus PSMA on Flp-in CHO cells (WBP3xx042-FlpinCHO.cPro1.B7) (cynomolgus). Briefly: flow cytometry on FlpInCHO-cyno PSMA cells. In general terms: Flow cytometry measures light scatter and fluorescence of single cells or particles in a stream.
The target in experiment [2] is Cyno PSMA.ECD.His (Acro) (cynomolgus). Briefly: ELISA, coated cynomolgus PSMA protein (His tag). For orientation: An ELISA detects its analyte on a solid surface through an enzyme-linked reagent.
Experiment [3] shares this target. As to the kind of experiment: SPR (Biacore 8K). (In general: SPR reads the build-up and loss of mass on a sensor chip optically.)
The target in experiment [4] is full-length cynomolgus PSMA on Flp-in CHO cells (WBP3xx042-FlpinCHO.cPro1.B7) (cynomolgus). Briefly: flow cytometry on cynomolgus PSMA-expressing CHO cells.
Experiment [5] addresses Cyno PSMA.ECD.His (Acro) (cynomolgus). Briefly: ELISA, cynomolgus PSMA ECD captured by anti-His antibody.

Results are given in words; binding and its absence hold for the method and conditions named. Some results given as binding are weak or reduced against the parent protein; the word gives no strength.

B1: W308051-T3U5.E17-61.uIgG4V322 (bispecific antibody)
heavy 1: QVQLVQSGAEVKKPGSSVKVSCKASGFAFTDYYIHWVRQAPGQGLEWMGWISPGNVNTKYNENFKGRVTITADKSTSTAYMELSSLRSEDTAVYYCARDGYSLYYFDYWGQGTLVTVLEDLKNVFPPEVAVFEPSECEISHTQKATLVCLATGFYPDHVELSWWVNGKEVHSGVCTDPQPLKEQPALQDSRYALSSRLRVSATFWQNPRNHFRCQVQFYGLSENDEWTQDRAKPVTQIVSAEAWGRYGPPCPPCPAPEAAGGPSVFLFPPKPKDTLMISRTPEVTCVVVDVSQEDPEVQFNWYVDGVEVHNAKTKPREEQFNSTYRVVSVLTVLHQDWLNGKEYKCKVSNKGLPSSIEKTISKAKGQPREPQVYTLPPCQEEMTKNQVSLWCLVKGFYPSDIAVEWESNGQPENNYKTTPPVLDSDGSFFLYSRLTVDKSRWQEGNVFSCSVMHEALHNHYTQKSLSLSLG
light 1: DIVMTQSPDSLAVSLGERATINCKSSQSLLNSRTRKNYLAWYQQKPGQPPKLLIYWASTRQSGVPDRFSGSGSGTDFTLTISSLQAEDVAVYYCTQSHTLRTFGGGTKVEIKPDIQNPDPAVYQLRDSKSSDKSVCLFTDFDSQTQVSQSKDSDVYITDKCVLDMRSMDFKSNSAVAWSQKSDFACANAFQNSIIPEDTFFCS
heavy 2: EVQLVQSGAEVKKPGESLKISCKASGYSFTTYWIGWVRQMPGKGLELMGIIYPYDSDTRYSPSFQGQVTISADKSINTAYLQWSSLKASDTAMYYCARITGGYLFDYWGQGILVTVSSASTKGPSVFPLAPCSRSTSESTAALGCLVKDYFPEPVTVSWNSGALTSGVHTFPAVLQSSGLYSLSSVVTVPSSSLGTKTYTCNVDHKPSNTKVDKRVESKYGPPCPPCPAPEAAGGPSVFLFPPKPKDTLMISRTPEVTCVVVDVSQEDPEVQFNWYVDGVEVHNAKTKPREEQFNSTYRVVSVLTVLHQDWLNGKEYKCKVSNKGLPSSIEKTISKAKGQPREPQVCTLPPSQEEMTKNQVSLSCAVKGFYPSDIAVEWESNGQPENNYKTTPPVLDSDGSFFLVSRLTVDKSRWQEGNVFSCSVMHEALHNHYTQKSLSLSLG
light 2: QSALTQPPSASGSPGQSVTISCTGTSSDVGGYNYVSWYQQHPGKAPKLMIYEVTKRPSGVPDRFSGSKSGNTASLTVSGLQAEDEADYYCTSYAGSNKYVFGTGTKVTVLGQPKAAPSVTLFPPSSEELQANKATLVCLISDFYPGAVTVAWKADSSPVKAGVETTTPSKQSNNKYAASSYLSLTPEQWKSHKSYSCQVTHEGSTVEKTVAPTECS
Take B1: the binding entry in experiment [1] and in experiment [2] was “binds” throughout.

B2: W305042-1.135.2-uIgG1L (antibody, V domains shown)
VH: EVQLVQSGAEVKKPGESLKISCKASGYSFTTYWIGWVRQMPGKGLELMGIIYPYDSDTRYSPSFQGQVTISADKSINTAYLQWSSLKASDTAMYYCARITGGYLFDYWGQGILVTVSS
VL: QSALTQPPSASGSPGQSVTISCTGTSSDVGGYNYVSWYQQHPGKAPKLMIYEVTKRPSGVPDRFSGSKSGNTASLTVSGLQAEDEADYYCTSYAGSNKYVFGTGTKVTVLG
In the case of B2, the binding result in experiment [3], in experiment [4] and in experiment [5] was “binds” each time.
